{
  "sequences": {"note": "Chains of the proteins cited; added tags and fusions are not shown. Lines headed by an entry give the natural chain unless they say otherwise; changes in a name come on top.", "UniProt P18054": "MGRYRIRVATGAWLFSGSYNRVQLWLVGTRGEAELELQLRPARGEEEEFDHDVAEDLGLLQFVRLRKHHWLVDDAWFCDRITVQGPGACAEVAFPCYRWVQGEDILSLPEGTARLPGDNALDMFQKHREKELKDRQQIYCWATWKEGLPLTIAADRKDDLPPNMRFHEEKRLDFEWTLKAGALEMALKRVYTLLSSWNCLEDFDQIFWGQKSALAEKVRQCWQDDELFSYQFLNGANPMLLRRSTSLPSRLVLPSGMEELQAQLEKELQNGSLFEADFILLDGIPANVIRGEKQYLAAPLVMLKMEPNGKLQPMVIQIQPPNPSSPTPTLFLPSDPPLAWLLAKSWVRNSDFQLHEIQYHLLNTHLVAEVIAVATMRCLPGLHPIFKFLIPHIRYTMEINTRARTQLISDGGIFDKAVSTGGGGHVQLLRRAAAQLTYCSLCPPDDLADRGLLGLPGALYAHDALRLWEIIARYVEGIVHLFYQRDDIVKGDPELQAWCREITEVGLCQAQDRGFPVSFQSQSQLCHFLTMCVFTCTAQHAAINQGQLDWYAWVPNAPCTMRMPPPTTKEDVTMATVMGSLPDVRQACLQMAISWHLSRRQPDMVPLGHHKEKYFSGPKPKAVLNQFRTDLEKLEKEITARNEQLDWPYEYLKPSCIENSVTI"},
  "source": "PubChem BioAssay AID1671190",
  "about": "(National Center for Advancing Translational Sciences (NCATS), 2021)",
  "note": "Among all 580,000 compounds or so, about 6,100 (1.1%) were called active. Inconclusive results, whose numbers are uncertain, are shown with a selection of clear calls. Calls come from the whole dose curve; as a rule, active = well fitted inhibition curve with a large enough effect; inconclusive = small, poorly fitted or top-dose-only effect, or another doubt; inactive = no such curve, though single readings can be large or run the other way. A potency beside an inconclusive call is a rough fit, not a confirmed value. % is set by controls: 0 for no effect and ±100 for the full control effect; potency is the fitted concentration of half-maximal effect.",
  "data": [
    {"target": "Polyunsaturated fatty acid lipoxygenase ALOX12 (Homo sapiens) (UniProt P18054)", "test": "Primary qHTS assay for inhibitors of human arachidonate 12S-lipoxygenase (ALOX12): Round 2", "settings": "purified 12hLO, xylenol orange hydroperoxide absorbance; activity change, negative = inhibition: at 108 µM (top of the series) unless noted", "summary_of_the_method": "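Purified human 12hLO at 150 nM in 25 mM Hepes, 0.01% Triton X-100, pH 7.0, preincubated 15 min at room temperature with compound. Reaction started with 40 uM arachidonic acid, 30 min at room temperature. Hydroperoxide measured by Fe-xylenol orange, 573/405 nm absorbance ratio.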", "values": [
      {"smiles": "COc1ccc2c(c1)nc(SCC(=O)c1cccs1)n2C", "activity change, negative = inhibition": "inactive: -18.8%"},
      {"smiles": "COc1cc(NC(=O)c2ccc(NC(=O)N3CCSc4ncccc43)cc2)cc(OC)c1", "Potency": "inconclusive: 39.8 µM [inhibitor, partial curve]"},
      {"smiles": "COc1cc(C)ccc1OCCOCCOc1cccc2ccc(C)nc12", "Potency": "inconclusive: 2.51 µM [inhibitor, full curve, poor fit]"},
      {"smiles": "CC(C)c1nnc(NC(=O)CC(=O)Nc2ccccc2C(=O)O)s1", "Potency": "inconclusive: 17.8 µM [inhibitor, partial curve, poor fit]"},
      {"smiles": "CSC[C@H]1CN(c2ccccc2)C(=O)[C@@H]1CC(=O)Nc1ccc(Br)cc1", "Potency": "inconclusive: 100 µM [inhibitor, partial curve, poor fit]"},
      {"smiles": "Cc1cccc(NC(=O)CN2C(=S)NC(C)(C)CC2C)c1", "note": "(centres undefined)", "Potency": "inconclusive: 89.1 µM [inhibitor, partial curve, poor fit]"},
      {"smiles": "O=C(Nc1ccc(C(=O)Oc2ccccc2)c(O)c1)c1ccco1", "Potency": "inconclusive: 6.31 µM [inhibitor, full curve, poor fit]"},
      {"smiles": "Cc1cc(C)n(-c2ccccc2)n1", "Potency": "inconclusive: 39.8 µM [inhibitor, partial curve, poor fit]"},
      {"smiles": "O=C(NCC(c1ccco1)N1CCCCC1)c1nn(Cc2ccccc2)c(=O)c2ccccc12", "note": "(centres undefined)", "Potency": "inconclusive: 89.1 µM [inhibitor, single point]"},
      {"smiles": "COc1ccc(CCNCC2C(Oc3ccc(Cl)cc3)C(=O)N2c2ccccc2C)cc1OC", "note": "(centres undefined)", "activity change, negative = inhibition": "inactive: -6.45%"},
      {"smiles": "CC(=O)Nc1ccc(NC(=O)CS(=O)(=O)c2cn(CC(=O)N3CCC(C)CC3)c3ccccc23)cc1", "activity change, negative = inhibition": "inactive: 337%"},
      {"smiles": "O=C(O)C1CCC(C(=O)O)CC1", "note": "(centres undefined)", "activity change, negative = inhibition": "inactive: -14.9%"},
      {"smiles": "CNc1nc(-c2ccc3c(c2)CCN3C(=O)c2cccc(F)c2)cs1", "Potency": "inconclusive: 31.6 µM [inhibitor, partial curve, poor fit]"},
      {"smiles": "COc1ccc(N(C(=O)c2ccncc2)S(=O)(=O)c2cccc([N+](=O)[O-])c2)cc1", "Potency": "inconclusive: 100 µM [inhibitor, single point]"},
      {"smiles": "COc1ccc(C(=O)NNC(=O)c2snnc2C)cc1", "Potency": "inconclusive: 2.24 µM [inhibitor, full curve, poor fit]"},
      {"smiles": "N#CC(C#N)=C1NC2(CCCCC2)Cc2ccccc21", "Potency": "inconclusive: 4.47 µM [inhibitor, full curve, poor fit]"},
      {"smiles": "FC(F)(F)c1cnc(/C=C/Nc2ccccc2Cl)c(Cl)c1", "Potency": "inconclusive: 0.447 µM [inhibitor, full curve, poor fit]"},
      {"smiles": "CCc1ccccc1N(C(=O)c1snc(C(N)=O)c1N)C(C(=O)NCC1CCCO1)c1ccc(N(C)C)cc1", "note": "(centres undefined)", "activity change, negative = inhibition": "inactive: -16%"},
      {"smiles": "CCOC(=O)c1ccc(S(=O)(=O)N2CC(=O)Nc3ccccc32)cc1", "Potency": "inconclusive: 44.7 µM [inhibitor, partial curve]"},
      {"smiles": "CC[C@@H](C)[C@@H](NC(C)=O)C(=O)O", "Potency": "inconclusive: 4.47 µM [inhibitor, full curve, poor fit]"},
      {"smiles": "Cc1cccc(NC(=O)Cc2csc(COc3cccc(C)c3)n2)c1", "Potency": "inconclusive: 50.1 µM [inhibitor, partial curve, poor fit]"},
      {"smiles": "CCOc1ccccc1NC(=O)CSc1nccn1-c1cccc(C(F)(F)F)c1", "activity change, negative = inhibition": "inactive: -7.72%"},
      {"smiles": "N#CC1(NC(=O)CSc2ccc(C(F)(F)F)cn2)CCCCCC1", "Potency": "inconclusive: 158 µM [inhibitor, partial curve, poor fit]"},
      {"smiles": "CCOc1cc(/C=N/NC(=O)Cn2nc([N+](=O)[O-])cc2C)cc(Br)c1OCc1ccccc1C", "activity change, negative = inhibition": "inactive: 0%"},
      {"smiles": "O=C(NCc1cccc(Cl)c1)c1cnc2c(c1)N(C(=O)Cc1ccc(O)cc1)CCC2", "Potency": "inconclusive: 126 µM [inhibitor, partial curve, poor fit]"},
      {"smiles": "CCOC(=O)c1c(C)n(C)c2ccc(OCC#N)cc12", "activity change, negative = inhibition": "inactive: 3.88%"},
      {"smiles": "COc1ccc2nc(N3C(=O)C(O)=C(C(=O)c4ccco4)C3c3ccc(OC)c(OC)c3)sc2c1", "note": "(centres undefined)", "Potency": "active: 39.8 µM"},
      {"smiles": "CCCN1CCN(C(c2cc3cc4c(cc3[nH]c2=O)OCO4)c2nnnn2C(C)(C)C)CC1", "note": "(centres undefined)", "Potency": "inconclusive: 5.62 µM [inhibitor, full curve, poor fit]"},
      {"smiles": "COC(=O)c1cc(NC(=O)c2cccc([N+](=O)[O-])c2C)ccc1Cl", "activity change, negative = inhibition": "inactive: 0.558%"},
      {"smiles": "Cc1cc(C)cc(NC(=O)CCc2c(C)nc3c4cccnc4nn3c2C)c1", "activity change, negative = inhibition": "inactive: -25.2%"},
      {"smiles": "Cc1ccc(Cn2c(CCCOc3ccc(Cl)cc3Cl)n[nH]c2=S)cc1", "Potency": "active: 15.8 µM"},
      {"smiles": "C#CCOCCOCCOCCNc1nc(N2CCN(C(=O)Cn3cc(CCO)nn3)CC2)nc(N2CCN(C(=O)Cn3cc(CCO)nn3)CC2)n1", "Potency": "inconclusive: 17.8 µM [inhibitor, full curve]"},
      {"smiles": "COc1cccc(C(=O)Nc2ccc(N3CCN(C(=O)c4ccccc4C)CC3)cc2)c1", "Potency": "inconclusive: 35.5 µM [inhibitor, full curve, poor fit]"},
      {"smiles": "COc1ccc(/C=C2/SC(=S)N(CC(=O)O)C2=O)cc1OCc1ccc(Cl)cc1", "activity change, negative = inhibition": "inactive: -6.9%"},
      {"smiles": "Cc1cccc(-n2c(SCC(=O)c3ccccc3)nnc2-c2ccc(Br)cc2)c1", "Potency": "inconclusive: 126 µM [inhibitor, single point]"},
      {"smiles": "O=C(N/N=C(\\CC(=O)c1cccs1)C(F)(F)F)c1ccncc1", "activity change, negative = inhibition": "inactive: 13.1%"},
      {"smiles": "CCCCC(=O)N(C)c1c(CC)nc2c(OCC(=O)N(C)C)cccn12", "Potency": "inconclusive: 50.1 µM [inhibitor, partial curve, poor fit]"},
      {"smiles": "O=C(NCCc1c[nH]c2ccccc12)C(=O)NCC1OCCN1S(=O)(=O)c1ccccc1", "note": "(centres undefined)", "activity change, negative = inhibition": "inactive: -15.6%"},
      {"smiles": "FC(F)(F)c1ccc(CN2CCC3(CC(c4cccc(C(F)(F)F)c4)=NO3)C2)cc1", "note": "(centres undefined)", "Potency": "inconclusive: 11.2 µM [inhibitor, partial curve, poor fit]"},
      {"smiles": "O=C(N1CCCC1)N1CCn2c(nnc2-c2cncc(Br)c2)C1", "activity change, negative = inhibition": "inactive: 4.95% [at 6.33 µM]"},
      {"smiles": "CC(CNC(=O)c1cc(COc2ccc3ncccc3c2)on1)c1ccccc1", "note": "(centres undefined)", "Potency": "inconclusive: 7.94 µM [inhibitor, full curve, poor fit]"},
      {"smiles": "CCCc1ccc2oc(C(=O)NCCN3CCCC(O)C3)c(C)c2c1", "note": "(centres undefined)", "Potency": "inconclusive: 3.16 µM [inhibitor, full curve, poor fit]"},
      {"smiles": "CN(C/C(O)=C(\\C#N)c1ccccc1)C1CCCCC1", "Potency": "inconclusive: 5.01 µM [inhibitor, full curve, poor fit]"},
      {"smiles": "CCc1ccc(NC(=O)Cn2c(=O)n(CCCC(=O)NCc3ccco3)c(=O)c3ccccc32)cc1", "Potency": "inconclusive: 5.62 µM [inhibitor, full curve, poor fit]"},
      {"smiles": "COc1ccc(C2(CNC(=O)c3ccc(Cl)cc3Cl)CCOCC2)cc1", "activity change, negative = inhibition": "inactive: -14.9%"},
      {"smiles": "COc1ccc2cnn(CC(=O)Nc3ccc(F)cc3)c(=O)c2c1OC", "activity change, negative = inhibition": "inactive: -15.5%"},
      {"smiles": "CC(Oc1ccc(F)cc1)C(=O)Nc1cc(S(=O)(=O)N2CCOCC2)ccc1N1CCN(C)CC1", "note": "(centres undefined)", "Potency": "inconclusive: 50.1 µM [inhibitor, partial curve, poor fit]"},
      {"smiles": "COc1cccc(C(=O)N2N=C(c3cccc(OC)c3)CC2(O)C(F)(F)F)c1", "note": "(centres undefined)", "activity change, negative = inhibition": "inactive: 18.8%"},
      {"smiles": "Cc1noc(C)c1COc1ccccc1C(=O)NCCc1ccc(Cl)cc1", "Potency": "inconclusive: 44.7 µM [inhibitor, partial curve, poor fit]"},
      {"smiles": "COc1cccc(C2Nc3cccc4cccc(c34)N2)c1", "Potency": "inconclusive: 56.2 µM [inhibitor, partial curve, poor fit]"},
      {"smiles": "CC(OC(=O)CCN=C1NS(=O)(=O)c2ccccc21)C(=O)N(C)c1ccccc1", "note": "(centres undefined)", "activity change, negative = inhibition": "inactive: -19.2%"},
      {"smiles": "Cc1cc(-c2csc(N)n2)c(C)n1CCc1ccccc1", "Potency": "inconclusive: 50.1 µM [inhibitor, partial curve, poor fit]"},
      {"smiles": "Cc1cc2ccccc2nc1SCC(=O)NC1CCCC1", "Potency": "inconclusive: 56.2 µM [inhibitor, partial curve, poor fit]"},
      {"smiles": "CC(COc1cccc(F)c1)CN1CCC(C(O)(c2ccccc2)c2ccccc2)CC1", "note": "(centres undefined)", "Potency": "inconclusive: 70.8 µM [inhibitor, single point]"},
      {"smiles": "O=C(NCc1cccs1)c1ccccn1", "Potency": "inconclusive: 31.6 µM [inhibitor, partial curve, poor fit]"},
      {"smiles": "CCc1ccc(C2=NN(CCC(=O)NCCc3ccc(Cl)cc3)C(=O)CC2)cc1", "Potency": "inconclusive: 50.1 µM [inhibitor, partial curve, poor fit]"},
      {"smiles": "Cc1ccc(OCC(=O)Nc2cccc(S(=O)(=O)N3CCOCC3)c2)c([N+](=O)[O-])n1", "Potency": "inconclusive: 141 µM [inhibitor, partial curve, poor fit]"},
      {"smiles": "C/C=C/c1ccc(OCCCNC(C)CC)c(OC)c1", "note": "(centres undefined)", "Potency": "inconclusive: 0.199 µM [inhibitor, full curve, poor fit]"},
      {"smiles": "Cc1csc(NC(=O)CN2C(=O)c3ccccc3S2(=O)=O)n1", "Potency": "inconclusive: 50.1 µM [inhibitor, single point]"},
      {"smiles": "CN(CC(=O)Nc1cccc(F)c1)C(=O)CCNC(=O)c1ccc(Br)cc1", "Potency": "inconclusive: 50.1 µM [inhibitor, partial curve, poor fit]"},
      {"smiles": "N#CCCN/N=C(\\Cc1nc2ccccc2[nH]1)c1ccccc1", "Potency": "inconclusive: 50.1 µM [inhibitor, partial curve, poor fit]"},
      {"smiles": "Cc1cc(C)cc(C(=O)NC(=S)Nc2ccc3[nH]c(=O)[nH]c3c2)c1", "Potency": "inconclusive: 44.7 µM [inhibitor, partial curve, poor fit]"},
      {"smiles": "CC(C)n1nnnc1SCC(=O)c1ccc2c(c1)OCCO2", "Potency": "inconclusive: 44.7 µM [inhibitor, partial curve, poor fit]"},
      {"smiles": "Cc1ccc(CCNC(=O)CCSCc2ccccc2Cl)cc1", "Potency": "inconclusive: 178 µM [inhibitor, partial curve, poor fit]"}
    ]}
  ]
}
